Data taken from patent publication US20260108467A1, “COMPOSITIONS AND METHODS FOR M[…] OF […] PEPTIDES” (Finitus, LLC, priority 2024, published 2026).
Part of at least one peptide drawing is inferred or uncertain, most often the ends.

What was measured:
[1] = Individual and mean plasma concentration-time data of L-Carnosine
[2] = as above; remark: listed apart in the source

In the case of `NCCC(=O)N[C@@H](Cc1c[nH]cn1)C(=O)O` [L-Carnosine], the “L-Carnosine (ng/mL) | G2-S212-50:50 Sigma polymer-24 mg/animal_IM | Mean” value [1] is reported as 73.811 ng/mL and the “L-Carnosine (ng/mL) | G3-S212-65:35 Sigma polymer-12 mg/animal_IM | Mean” value [2] is reported as 67.185 ng/mL.
